Laboratory results as given in PMC7322711.
These are yes or no findings as the source states them, for the method shown. In cells and extracts the contact can be indirect. Some binding calls cover weakened binding; strength is not graded here. Sequences can lack the tags named with a protein.

Sequences of proteins named here, by UniProt entry; tags and fusion partners are left off.
UniProt P49792: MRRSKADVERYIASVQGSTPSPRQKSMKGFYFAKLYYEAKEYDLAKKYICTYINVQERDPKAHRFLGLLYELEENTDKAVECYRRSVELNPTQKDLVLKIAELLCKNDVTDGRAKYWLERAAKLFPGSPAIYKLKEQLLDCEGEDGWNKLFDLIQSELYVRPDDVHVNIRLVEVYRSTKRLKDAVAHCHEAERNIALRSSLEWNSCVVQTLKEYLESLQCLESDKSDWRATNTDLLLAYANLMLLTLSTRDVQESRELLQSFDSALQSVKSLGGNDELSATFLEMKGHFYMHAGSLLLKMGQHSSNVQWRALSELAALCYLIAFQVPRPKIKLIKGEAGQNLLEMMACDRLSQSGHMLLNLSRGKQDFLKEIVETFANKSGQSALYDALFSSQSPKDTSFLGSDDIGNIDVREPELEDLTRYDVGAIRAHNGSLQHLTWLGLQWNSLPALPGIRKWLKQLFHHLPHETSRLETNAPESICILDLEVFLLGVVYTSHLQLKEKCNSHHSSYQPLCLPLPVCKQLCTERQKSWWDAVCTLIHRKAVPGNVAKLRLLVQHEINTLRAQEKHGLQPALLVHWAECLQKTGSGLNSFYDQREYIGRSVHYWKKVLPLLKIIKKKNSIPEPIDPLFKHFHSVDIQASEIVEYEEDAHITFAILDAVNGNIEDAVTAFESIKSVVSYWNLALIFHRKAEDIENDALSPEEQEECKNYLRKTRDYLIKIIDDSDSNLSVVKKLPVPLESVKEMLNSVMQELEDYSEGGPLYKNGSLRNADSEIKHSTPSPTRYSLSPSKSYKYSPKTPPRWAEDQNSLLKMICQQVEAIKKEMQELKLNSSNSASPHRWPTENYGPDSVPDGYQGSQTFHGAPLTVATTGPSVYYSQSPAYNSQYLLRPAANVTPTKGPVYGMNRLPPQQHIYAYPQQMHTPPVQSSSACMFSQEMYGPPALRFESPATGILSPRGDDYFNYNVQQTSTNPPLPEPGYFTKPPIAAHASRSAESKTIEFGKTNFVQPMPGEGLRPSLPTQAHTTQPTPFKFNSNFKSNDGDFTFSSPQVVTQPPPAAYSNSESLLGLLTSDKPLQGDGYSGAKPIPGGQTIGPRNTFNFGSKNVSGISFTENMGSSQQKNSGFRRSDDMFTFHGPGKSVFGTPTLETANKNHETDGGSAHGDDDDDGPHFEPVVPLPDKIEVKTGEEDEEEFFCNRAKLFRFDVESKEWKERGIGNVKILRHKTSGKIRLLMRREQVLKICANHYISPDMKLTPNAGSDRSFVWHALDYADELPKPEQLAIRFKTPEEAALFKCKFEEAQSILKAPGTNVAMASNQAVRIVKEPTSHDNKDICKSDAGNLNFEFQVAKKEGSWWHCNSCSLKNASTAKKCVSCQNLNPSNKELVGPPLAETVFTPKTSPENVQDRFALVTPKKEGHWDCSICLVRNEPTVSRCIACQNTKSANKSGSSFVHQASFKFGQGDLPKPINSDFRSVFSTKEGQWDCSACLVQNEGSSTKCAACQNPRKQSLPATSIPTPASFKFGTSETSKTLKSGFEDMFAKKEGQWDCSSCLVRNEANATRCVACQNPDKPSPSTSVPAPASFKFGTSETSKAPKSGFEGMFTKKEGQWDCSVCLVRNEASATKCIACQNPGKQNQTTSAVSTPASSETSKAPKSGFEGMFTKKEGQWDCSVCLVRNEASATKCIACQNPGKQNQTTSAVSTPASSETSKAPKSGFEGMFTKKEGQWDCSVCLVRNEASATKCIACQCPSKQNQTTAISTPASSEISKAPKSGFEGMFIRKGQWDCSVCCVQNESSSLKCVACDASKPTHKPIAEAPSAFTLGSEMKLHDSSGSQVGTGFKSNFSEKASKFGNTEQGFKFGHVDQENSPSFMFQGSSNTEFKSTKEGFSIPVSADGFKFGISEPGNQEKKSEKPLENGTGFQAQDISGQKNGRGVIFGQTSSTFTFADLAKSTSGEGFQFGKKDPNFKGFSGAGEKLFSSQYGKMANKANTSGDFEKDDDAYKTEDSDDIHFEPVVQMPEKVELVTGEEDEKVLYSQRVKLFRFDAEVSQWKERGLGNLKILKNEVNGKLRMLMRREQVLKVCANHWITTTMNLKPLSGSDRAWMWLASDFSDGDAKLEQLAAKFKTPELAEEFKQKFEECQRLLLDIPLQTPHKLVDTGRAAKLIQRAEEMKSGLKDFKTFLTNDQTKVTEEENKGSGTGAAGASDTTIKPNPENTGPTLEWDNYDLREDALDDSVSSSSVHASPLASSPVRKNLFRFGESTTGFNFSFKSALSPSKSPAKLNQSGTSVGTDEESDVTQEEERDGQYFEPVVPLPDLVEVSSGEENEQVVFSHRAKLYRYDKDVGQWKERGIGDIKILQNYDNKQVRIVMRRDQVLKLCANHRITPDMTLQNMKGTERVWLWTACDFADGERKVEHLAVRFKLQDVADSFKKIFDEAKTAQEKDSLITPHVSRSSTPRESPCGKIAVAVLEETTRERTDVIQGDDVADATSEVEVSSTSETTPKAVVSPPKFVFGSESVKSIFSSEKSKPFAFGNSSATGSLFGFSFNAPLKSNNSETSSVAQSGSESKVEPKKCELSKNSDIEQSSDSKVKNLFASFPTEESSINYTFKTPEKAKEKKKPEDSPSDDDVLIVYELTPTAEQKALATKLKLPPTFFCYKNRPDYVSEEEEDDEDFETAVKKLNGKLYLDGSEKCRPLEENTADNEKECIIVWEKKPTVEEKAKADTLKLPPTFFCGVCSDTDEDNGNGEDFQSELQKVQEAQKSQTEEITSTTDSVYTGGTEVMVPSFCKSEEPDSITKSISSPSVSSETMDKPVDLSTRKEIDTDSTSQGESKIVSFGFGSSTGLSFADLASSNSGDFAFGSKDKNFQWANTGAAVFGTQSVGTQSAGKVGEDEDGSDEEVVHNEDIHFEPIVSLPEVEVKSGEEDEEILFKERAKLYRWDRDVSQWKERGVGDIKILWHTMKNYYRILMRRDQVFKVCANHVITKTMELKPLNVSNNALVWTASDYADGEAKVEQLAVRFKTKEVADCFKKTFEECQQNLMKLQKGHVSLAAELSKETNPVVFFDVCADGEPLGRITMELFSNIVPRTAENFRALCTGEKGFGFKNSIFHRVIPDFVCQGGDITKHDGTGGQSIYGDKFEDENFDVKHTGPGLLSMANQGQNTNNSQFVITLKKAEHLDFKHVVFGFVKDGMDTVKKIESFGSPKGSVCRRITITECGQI

Molecular target: NUP358 (human (endogenous in 293T)) (UniProt P49792)
Assay: co-IP; 293T cells transfected with HA-tagged MxB proteins; NP40 lysate; endogenous NUP358 immunoprecipitated with anti-NUP358 antibody and Protein-G Sepharose, 4 °C, 4 h; associated HA-tagged proteins detected by immunoblot; control rabbit IgG

Row | Binder | binding
1 | HA-tagged non-antiviral short isoform of MxB that lacks the NLS (MxB_(ΔNLS)) (domain or fragment, UniProt P20592-1 26-715) MNSFQQQPPPFGTVPPQMMFPPNWQGAEKDAAFLAKDFNFLTLNNQPPPGNRSQPRAMGPENNLYSQYEQKVRPCIDLIDSLRALGVEQDLALPAIAVIGDQSSGKSSVLEALSGVALPRGSGIVTRCPLVLKLKKQPCEAWAGRISYRNTELELQDPGQVEKEIHKAQNVMAGNGRGISHELISLEITSPEVPDLTIIDLPGITRVAVDNQPRDIGLQIKALIKKYIQRQQTINLVVVPCNVDIATTEALSMAHEVDPEGDRTIGILTKPDLMDRGTEKSVMNVVRNLTYPLKKGYMIVKCRGQQEITNRLSLAEATKKEITFFQTHPYFRVLLEEGSATVPRLAERLTTELIMHIQKSLPLLEGQIRESHQKATEELRRCGADIPSQEADKMFFLIEKIKMFNQDIEKLVEGEEVVRENETRLYNKIREDFKNWVGILATNTQKVKNIIHEEVEKYEKQYRGKELLGFVNYKTFEIIVHQYIQQLVEPALSMLQKAMEIIQQAFINVAKKHFGEFFNLNQTVQSTIEDIKVKHTAKAENMIQLQFRMEQMVFCQDQIYSVVLKKVREEIFNPLGTPSQNMKLNSHFPSNESSVSSFTEIGIHLNAYFLETSKRLANQIPFIIQYFMLRENGDSLQKAMMQILQEKNRYSWLLQEQSETATKRRILKERIYRLTQARHALCQFSSKEIH | binds
2 | Hemagglutinin (HA)-tagged wild-type MxB (protein, UniProt P20592-1 1-715) MSKAHKPWPYRRRSQFSSRKYLKKEMNSFQQQPPPFGTVPPQMMFPPNWQGAEKDAAFLAKDFNFLTLNNQPPPGNRSQPRAMGPENNLYSQYEQKVRPCIDLIDSLRALGVEQDLALPAIAVIGDQSSGKSSVLEALSGVALPRGSGIVTRCPLVLKLKKQPCEAWAGRISYRNTELELQDPGQVEKEIHKAQNVMAGNGRGISHELISLEITSPEVPDLTIIDLPGITRVAVDNQPRDIGLQIKALIKKYIQRQQTINLVVVPCNVDIATTEALSMAHEVDPEGDRTIGILTKPDLMDRGTEKSVMNVVRNLTYPLKKGYMIVKCRGQQEITNRLSLAEATKKEITFFQTHPYFRVLLEEGSATVPRLAERLTTELIMHIQKSLPLLEGQIRESHQKATEELRRCGADIPSQEADKMFFLIEKIKMFNQDIEKLVEGEEVVRENETRLYNKIREDFKNWVGILATNTQKVKNIIHEEVEKYEKQYRGKELLGFVNYKTFEIIVHQYIQQLVEPALSMLQKAMEIIQQAFINVAKKHFGEFFNLNQTVQSTIEDIKVKHTAKAENMIQLQFRMEQMVFCQDQIYSVVLKKVREEIFNPLGTPSQNMKLNSHFPSNESSVSSFTEIGIHLNAYFLETSKRLANQIPFIIQYFMLRENGDSLQKAMMQILQEKNRYSWLLQEQSETATKRRILKERIYRLTQARHALCQFSSKEIH | binds
